These are yes or no findings as the source states them, for the method shown.
What was measured:
[1] = biological target: T1, DDB1b (UniProt O49552); assay: two-hybrid; yeast two-hybrid assay; bait, prey and conditions not told
T1 sequence: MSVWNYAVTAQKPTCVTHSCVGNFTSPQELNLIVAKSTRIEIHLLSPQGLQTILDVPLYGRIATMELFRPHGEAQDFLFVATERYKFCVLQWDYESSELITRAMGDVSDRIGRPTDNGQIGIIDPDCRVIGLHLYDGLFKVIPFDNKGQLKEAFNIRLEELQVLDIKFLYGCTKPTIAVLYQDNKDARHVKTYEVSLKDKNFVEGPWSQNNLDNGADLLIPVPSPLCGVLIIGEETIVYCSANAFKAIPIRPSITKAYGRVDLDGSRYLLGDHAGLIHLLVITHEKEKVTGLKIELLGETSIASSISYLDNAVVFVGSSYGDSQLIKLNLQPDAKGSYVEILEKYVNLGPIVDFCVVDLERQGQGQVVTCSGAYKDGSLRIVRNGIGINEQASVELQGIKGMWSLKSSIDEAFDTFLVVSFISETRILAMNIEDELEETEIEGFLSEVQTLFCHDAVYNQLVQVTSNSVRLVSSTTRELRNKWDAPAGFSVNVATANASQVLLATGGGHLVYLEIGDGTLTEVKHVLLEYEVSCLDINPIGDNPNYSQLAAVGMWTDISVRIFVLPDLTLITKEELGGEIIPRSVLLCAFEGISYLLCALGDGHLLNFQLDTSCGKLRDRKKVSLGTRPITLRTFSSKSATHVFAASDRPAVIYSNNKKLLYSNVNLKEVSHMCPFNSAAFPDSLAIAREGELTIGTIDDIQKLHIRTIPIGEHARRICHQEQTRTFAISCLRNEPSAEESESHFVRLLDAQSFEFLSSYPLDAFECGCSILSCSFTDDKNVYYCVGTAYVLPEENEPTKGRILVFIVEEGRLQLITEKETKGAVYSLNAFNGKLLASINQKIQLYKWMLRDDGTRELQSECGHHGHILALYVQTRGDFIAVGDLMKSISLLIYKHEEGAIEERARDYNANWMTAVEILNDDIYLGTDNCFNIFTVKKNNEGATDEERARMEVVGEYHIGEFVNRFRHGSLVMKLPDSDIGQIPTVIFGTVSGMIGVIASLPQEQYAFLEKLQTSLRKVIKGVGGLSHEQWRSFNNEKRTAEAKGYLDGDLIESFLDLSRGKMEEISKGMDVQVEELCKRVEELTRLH

[2] = biological target: T2, DDB1a (UniProt Q9M0V3); assay: as above
T2 sequence: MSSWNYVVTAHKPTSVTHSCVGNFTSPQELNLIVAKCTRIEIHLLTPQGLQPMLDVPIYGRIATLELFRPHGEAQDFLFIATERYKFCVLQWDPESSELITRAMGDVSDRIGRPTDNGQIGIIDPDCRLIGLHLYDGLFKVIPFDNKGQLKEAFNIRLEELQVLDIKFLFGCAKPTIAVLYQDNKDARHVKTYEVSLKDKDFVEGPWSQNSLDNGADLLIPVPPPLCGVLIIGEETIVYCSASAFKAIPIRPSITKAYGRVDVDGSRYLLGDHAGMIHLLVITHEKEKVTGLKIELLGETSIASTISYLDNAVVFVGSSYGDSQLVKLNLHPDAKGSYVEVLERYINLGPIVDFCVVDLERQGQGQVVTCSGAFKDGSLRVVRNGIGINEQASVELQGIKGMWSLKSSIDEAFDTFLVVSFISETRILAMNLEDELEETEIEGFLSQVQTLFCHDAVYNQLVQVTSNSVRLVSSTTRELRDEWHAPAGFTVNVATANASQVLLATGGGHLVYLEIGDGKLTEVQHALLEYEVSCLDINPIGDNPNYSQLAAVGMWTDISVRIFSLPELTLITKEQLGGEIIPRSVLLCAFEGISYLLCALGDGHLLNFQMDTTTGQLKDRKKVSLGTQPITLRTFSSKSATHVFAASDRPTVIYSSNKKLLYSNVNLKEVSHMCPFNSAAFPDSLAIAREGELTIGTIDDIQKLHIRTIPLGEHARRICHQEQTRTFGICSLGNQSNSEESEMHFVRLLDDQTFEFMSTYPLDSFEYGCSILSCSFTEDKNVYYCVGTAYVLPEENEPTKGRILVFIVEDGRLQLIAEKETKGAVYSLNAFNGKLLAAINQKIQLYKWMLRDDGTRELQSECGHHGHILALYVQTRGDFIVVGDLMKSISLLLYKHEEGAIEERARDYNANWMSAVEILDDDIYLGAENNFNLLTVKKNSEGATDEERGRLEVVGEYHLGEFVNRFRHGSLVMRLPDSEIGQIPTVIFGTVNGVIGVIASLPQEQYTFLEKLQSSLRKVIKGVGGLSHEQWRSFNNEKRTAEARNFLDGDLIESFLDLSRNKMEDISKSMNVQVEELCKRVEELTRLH

binding [1]: no binding | binding [2]: no binding
B1: YAO (full length) (protein, UniProt Q9M0V4 1-504)
chain: MKYNNEKKKGGSFKRGGKKGSNERDPFFEEEPKKRRKVSYDDDDIESVDSDAEENGFTGGDEDGRRVDGEVEDEDEFADETAGEKRKRLAEEMLNRRREAMRREREEADNDDDDDEDDDETIKKSLMQKQQEDSGRIRRLIASRVQEPLSTDGFSVIVKHRRSVVSVALSDDDSRGFSASKDGTIMHWDVSSGKTDKYIWPSDEILKSHGMKLREPRNKNHSRESLALAVSSDGRYLATGGVDRHVHIWDVRTREHVQAFPGHRNTVSCLCFRYGTSELYSGSFDRTVKVWNVEDKAFITENHGHQGEILAIDALRKERALTVGRDRTMLYHKVPESTRMIYRAPASSLESCCFISDNEYLSGSDNGTVALWGMLKKKPVFVFKNAHQDIPDGITTNGILENGDHEPVNNNCSANSWVNAVATSRGSDLAASGAGNGFVRLWAVETNAIRPLYELPLTGFVNSLAFAKSGKFLIAGVGQETRFGRWGCLKSAQNGVAIHPLRLA

Source: article PMC3095302
